Data from patent US20190322724A1.
No constants are given. Whether binding was seen depends on the method and setting. In cells and extracts the contact can be indirect. Some results given as binding are weak or reduced against the parent protein; the word gives no strength.

Protein sequences, listed by entry. Tags and fused reporters are not part of them. Lines headed by an entry give the natural chain unless they say otherwise; changes in a name come on top. Residues count along the entry.
UniProt P14780, residues 20-707: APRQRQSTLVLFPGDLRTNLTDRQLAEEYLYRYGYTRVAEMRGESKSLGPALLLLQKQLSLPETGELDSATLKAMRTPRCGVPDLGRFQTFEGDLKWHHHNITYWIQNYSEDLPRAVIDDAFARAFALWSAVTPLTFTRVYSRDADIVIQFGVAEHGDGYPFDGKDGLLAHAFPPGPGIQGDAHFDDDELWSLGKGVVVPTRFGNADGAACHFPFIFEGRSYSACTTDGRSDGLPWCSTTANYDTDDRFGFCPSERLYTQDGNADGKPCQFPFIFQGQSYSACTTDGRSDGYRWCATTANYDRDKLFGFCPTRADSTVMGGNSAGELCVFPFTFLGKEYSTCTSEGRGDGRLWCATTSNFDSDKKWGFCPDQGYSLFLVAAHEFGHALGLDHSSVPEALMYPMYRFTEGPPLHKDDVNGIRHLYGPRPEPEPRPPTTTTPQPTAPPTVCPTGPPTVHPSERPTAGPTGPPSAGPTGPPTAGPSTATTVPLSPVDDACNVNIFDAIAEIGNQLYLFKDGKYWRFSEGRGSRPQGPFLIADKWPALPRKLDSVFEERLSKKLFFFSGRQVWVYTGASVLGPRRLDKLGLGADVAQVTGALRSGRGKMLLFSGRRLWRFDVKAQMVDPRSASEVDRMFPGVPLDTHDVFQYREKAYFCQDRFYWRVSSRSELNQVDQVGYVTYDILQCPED
UniProt P33434, residues 30-662: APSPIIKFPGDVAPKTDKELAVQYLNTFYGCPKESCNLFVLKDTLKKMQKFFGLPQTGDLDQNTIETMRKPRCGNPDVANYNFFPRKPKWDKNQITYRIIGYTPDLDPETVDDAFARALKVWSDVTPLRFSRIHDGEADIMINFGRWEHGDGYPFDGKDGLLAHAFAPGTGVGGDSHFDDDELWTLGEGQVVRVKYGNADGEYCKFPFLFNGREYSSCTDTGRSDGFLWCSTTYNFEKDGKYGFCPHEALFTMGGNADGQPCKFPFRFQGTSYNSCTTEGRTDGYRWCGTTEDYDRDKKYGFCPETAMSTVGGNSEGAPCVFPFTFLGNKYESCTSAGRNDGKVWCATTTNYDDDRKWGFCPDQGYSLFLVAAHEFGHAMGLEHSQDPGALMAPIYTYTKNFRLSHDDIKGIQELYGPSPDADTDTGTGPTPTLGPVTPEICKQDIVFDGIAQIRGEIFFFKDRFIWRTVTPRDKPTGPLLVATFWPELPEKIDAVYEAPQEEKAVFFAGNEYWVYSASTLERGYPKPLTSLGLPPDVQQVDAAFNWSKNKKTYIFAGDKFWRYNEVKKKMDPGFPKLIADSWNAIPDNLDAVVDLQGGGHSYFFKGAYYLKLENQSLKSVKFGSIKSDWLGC
UniProt P16035: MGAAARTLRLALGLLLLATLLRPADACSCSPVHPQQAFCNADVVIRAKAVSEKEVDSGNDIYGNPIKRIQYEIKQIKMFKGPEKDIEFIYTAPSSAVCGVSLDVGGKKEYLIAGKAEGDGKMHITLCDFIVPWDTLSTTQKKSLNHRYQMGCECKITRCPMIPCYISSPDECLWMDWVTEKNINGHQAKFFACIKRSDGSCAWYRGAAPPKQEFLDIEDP

Experiments:
[1] = biological target: endogenous MMP-9 in 293H conditioned media (human (endogenous protein of a human cell line)) (UniProt P14780); assay: Ni-NTA pulldown from HEK293H CM, anti-MMP-9 immunoblot
[2] = biological target: endogenous secreted MMP-2 in conditioned media of SYF and SYF+c-Src mouse embryonic fibroblast cells (mouse (endogenous protein of mouse embryonic fibroblast cell lines)) (UniProt P33434); assay: Ni-NTA pulldown from CM of transfected SYF and SYF+c-Src cells, immunoblot

| binding [1] | binding [2] | Substance |
| --- | --- | --- |
| binds | – | TIMP-2 Y90E-His6 (from UniProt P16035 27-220) |
| binds | – | wild type human TIMP-2 with C-terminal His6 tag (WT TIMP-2-His6) (from UniProt P16035 27-220) |
| – | binds | TIMP-2 Y62E/Y90E/Y165E-His6 (from UniProt P16035 27-220) |
